Results from paper PMC5441903, “The E3 ligase ABI3-INTERACTING PROTEIN2 negatively regulates FUSCA3 and plays a role in cotyledon development in Arabidopsis thaliana” (Journal of Experimental Botany, 2017).
Where a chain is given by its changes, count along the chain named. Results are given in words; binding and its absence hold for the method and conditions named. For some of these results: Binding seen in cells or lysates may run through a third protein. Some entries that bind do so weakly or less than the wild type. Tags and fused reporters may be left off the sequences shown. Blank lines part the entries; values can stand above or below the binder they belong to.

Legend:
[1] = biological target: T1, BD-FUS3^N90 (FUS3 N-terminal region, first 90 amino acids including the B2 domain, fused to the LexA DNA-binding domain) (Arabidopsis thaliana) (UniProt Q9LW31); test: two-hybrid; LexA DB fusion of FUS3^N90 (pEG202) and AD fusions of AIP2 variants (pJG4-5) in S. cerevisiae EGY48; growth on -His/-Trp/-Leu/-Ura plates with 2% galactose and 1% raffinose (leucine reporter)
T1 sequence: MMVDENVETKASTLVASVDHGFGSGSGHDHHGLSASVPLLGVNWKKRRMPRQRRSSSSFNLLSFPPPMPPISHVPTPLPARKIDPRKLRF

[2] = biological target: T2, nYFP–FUS3 (Arabidopsis thaliana) (UniProt Q9LW31); test: split reporter; BiFC: nYFP and cYFP fusions transiently co-expressed in N. benthamiana leaves by agroinfiltration, confocal imaging after 48 h
T2 sequence: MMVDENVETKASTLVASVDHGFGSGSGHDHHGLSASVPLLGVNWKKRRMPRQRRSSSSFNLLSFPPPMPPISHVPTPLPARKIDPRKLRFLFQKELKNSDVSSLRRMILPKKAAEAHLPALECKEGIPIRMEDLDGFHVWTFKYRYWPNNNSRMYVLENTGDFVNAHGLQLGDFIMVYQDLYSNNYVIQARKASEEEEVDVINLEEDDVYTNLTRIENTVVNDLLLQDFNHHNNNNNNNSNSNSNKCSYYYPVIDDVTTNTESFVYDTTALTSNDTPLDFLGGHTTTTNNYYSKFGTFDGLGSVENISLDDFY

[3] = biological target: T3, GST–FUS3 (Arabidopsis thaliana, UniProt Q9LW31 1-313); test: pull-down; GST–FUS3 (2.5 µg) incubated with 35Sp:HA-AIP2 or 35Sp:HA-AIP2^C/S,E/G plant cell lysates, pulled down with glutathione resin; AIP2 detected with anti-HA; only the target purified
T3 construct: FUSCA3 (FUS3), Arabidopsis thaliana, At3g26790; GST fusion of ~66 kDa, construct described in Lu et al. (2010); probably the whole FUS3; also called glutathione S-transferase (GST)–FUS3; source: recombinant, purified (glutathione resin)
T3 sequence (looked up): T2 sequence

binding [1]: binds
B1: AD-AIP2 (ABI3-… PROTEIN2 fused to an activation domain) (protein, UniProt Q8RXD3 1-310)
chain: MDASSSPSPSEESLKLELDDLQKQLNKKLRFEASVCSIHNLLRDHYSSSSPSLRKQFYIVVSRVATVLKTRYTATGFWVAGLSLFEEAERLVSDASEKKHLKSCVAQAKEQLSEVDNQPTESSQGYLFEGHLTVDREPPQPQWLVQQNLMSAFASIVGGESSNGPTENTIGETANLMQELINGLDMIIPDILDDGGPPRAPPASKEVVEKLPVIIFTEELLKKFGAEAECCICKENLVIGDKMQELPCKHTFHPPCLKPWLDEHNSCPICRHELPTDDQKYENWKEREKEAEEERKGAENAVRGGEYMYV

binding [2]: binds
B2: cYFP–AIP2 (protein, UniProt Q8RXD3 1-310)
chain: B1 chain

binding [3]: binds
B3: HA-AIP2 (35Sp:HA-AIP2) (protein, UniProt Q8RXD3 1-310)
chain: B1 chain

binding [3]: binds
B4: AIP2^(C/S,E/G)-6×His (inactive AIP2 variant) (natural protein, Arabidopsis thaliana, UniProt Q8RXD3 1-310, looked up)
chain: B1 chain with C230S, C231S, E235G
notes: ~40 kDa; Probably the same FLAG-...-6×His construct as m5 with the three mutations; source: recombinant, purified
